These are literature values, as cited in US20040002476A1, “Modified fluorinated nucleoside analogues” (priority 2002, published 2004).

This data set deals with HCV. The conditions noted are these: cited from earlier work.

Consider `NC(=O)c1ncn([C@@H]2O[C@H](CO)[C@@H](O)[C@H]2O)n1` [Ribavirin, 1-β-D-ribofuranosyl-1-1,2,4-triazole-3-carboxamide], for which, where the note is “ribavirin alone”, the “patients with serum amino transferase levels reduced to normal” value is recorded as 40%. Besides, the “effect on serum levels of HCV-RNA” value (used alone) is given as “does not lower serum levels of HCV-RNA”.
